Article PMC6446838
No constants are given. Whether binding was seen depends on the method and setting. In cells and extracts the contact can be indirect. Some entries that bind do so weakly or less than the wild type.

By UniProt entry, the sequences of proteins in these tests, tags left out. Residues count along the entry.
UniProt Q96T17: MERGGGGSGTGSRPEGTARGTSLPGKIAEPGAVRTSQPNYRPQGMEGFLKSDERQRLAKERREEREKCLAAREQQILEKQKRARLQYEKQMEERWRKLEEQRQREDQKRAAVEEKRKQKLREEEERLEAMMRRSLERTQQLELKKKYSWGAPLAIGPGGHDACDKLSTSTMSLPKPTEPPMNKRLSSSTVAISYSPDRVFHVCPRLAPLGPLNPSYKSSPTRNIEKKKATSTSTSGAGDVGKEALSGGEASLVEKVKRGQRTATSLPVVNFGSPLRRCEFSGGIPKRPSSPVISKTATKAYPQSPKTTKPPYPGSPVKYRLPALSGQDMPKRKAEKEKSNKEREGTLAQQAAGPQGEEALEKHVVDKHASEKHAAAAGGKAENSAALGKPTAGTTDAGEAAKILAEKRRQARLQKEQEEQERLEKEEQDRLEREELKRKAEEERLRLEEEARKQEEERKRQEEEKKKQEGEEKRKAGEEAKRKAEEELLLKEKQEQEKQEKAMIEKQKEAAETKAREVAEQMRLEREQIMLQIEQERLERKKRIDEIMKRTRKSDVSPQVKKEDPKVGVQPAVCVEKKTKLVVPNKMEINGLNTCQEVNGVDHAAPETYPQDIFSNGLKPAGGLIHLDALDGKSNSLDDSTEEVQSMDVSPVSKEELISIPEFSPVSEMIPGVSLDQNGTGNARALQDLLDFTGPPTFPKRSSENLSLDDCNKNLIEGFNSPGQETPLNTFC
UniProt Q3KQU3: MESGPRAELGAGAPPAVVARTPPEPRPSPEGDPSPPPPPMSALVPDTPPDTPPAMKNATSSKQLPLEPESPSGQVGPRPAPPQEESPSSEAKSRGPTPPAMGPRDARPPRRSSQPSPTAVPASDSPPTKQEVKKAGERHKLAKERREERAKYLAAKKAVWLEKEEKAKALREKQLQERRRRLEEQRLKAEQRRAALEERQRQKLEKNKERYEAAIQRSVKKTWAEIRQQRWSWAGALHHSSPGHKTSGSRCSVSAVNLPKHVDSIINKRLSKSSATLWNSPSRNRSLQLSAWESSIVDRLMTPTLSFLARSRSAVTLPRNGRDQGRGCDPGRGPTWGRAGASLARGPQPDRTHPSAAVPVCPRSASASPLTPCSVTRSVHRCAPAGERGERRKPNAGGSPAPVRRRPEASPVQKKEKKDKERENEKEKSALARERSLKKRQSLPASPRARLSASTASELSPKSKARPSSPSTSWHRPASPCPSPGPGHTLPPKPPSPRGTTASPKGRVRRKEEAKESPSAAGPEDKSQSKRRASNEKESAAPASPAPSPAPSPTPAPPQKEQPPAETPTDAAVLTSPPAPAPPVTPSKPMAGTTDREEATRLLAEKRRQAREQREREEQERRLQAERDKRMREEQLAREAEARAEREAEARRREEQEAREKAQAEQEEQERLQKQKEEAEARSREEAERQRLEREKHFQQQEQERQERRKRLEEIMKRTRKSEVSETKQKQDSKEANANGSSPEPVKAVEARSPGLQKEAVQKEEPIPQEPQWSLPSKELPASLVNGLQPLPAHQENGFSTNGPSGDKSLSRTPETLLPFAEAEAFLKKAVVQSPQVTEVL
UniProt Q14244: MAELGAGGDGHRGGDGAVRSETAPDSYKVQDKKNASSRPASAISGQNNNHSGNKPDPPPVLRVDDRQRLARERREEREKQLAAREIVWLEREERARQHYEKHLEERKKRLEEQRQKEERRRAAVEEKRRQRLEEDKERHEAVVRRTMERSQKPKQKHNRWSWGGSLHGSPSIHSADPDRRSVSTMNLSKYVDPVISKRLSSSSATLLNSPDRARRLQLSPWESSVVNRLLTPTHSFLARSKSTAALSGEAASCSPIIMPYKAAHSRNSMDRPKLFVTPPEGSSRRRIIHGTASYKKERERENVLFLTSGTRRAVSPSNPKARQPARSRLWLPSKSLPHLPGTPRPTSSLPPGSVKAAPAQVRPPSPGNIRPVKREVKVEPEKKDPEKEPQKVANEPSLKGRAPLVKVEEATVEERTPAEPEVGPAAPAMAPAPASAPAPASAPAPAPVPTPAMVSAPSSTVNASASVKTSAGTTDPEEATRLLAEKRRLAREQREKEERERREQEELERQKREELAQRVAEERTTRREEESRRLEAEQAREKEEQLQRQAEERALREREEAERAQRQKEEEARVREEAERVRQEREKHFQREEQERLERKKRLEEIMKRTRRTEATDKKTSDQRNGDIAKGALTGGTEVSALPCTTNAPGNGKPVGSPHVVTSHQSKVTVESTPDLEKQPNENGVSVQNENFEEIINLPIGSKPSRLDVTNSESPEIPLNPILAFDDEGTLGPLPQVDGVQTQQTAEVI
UniProt P33176, residues 1-560: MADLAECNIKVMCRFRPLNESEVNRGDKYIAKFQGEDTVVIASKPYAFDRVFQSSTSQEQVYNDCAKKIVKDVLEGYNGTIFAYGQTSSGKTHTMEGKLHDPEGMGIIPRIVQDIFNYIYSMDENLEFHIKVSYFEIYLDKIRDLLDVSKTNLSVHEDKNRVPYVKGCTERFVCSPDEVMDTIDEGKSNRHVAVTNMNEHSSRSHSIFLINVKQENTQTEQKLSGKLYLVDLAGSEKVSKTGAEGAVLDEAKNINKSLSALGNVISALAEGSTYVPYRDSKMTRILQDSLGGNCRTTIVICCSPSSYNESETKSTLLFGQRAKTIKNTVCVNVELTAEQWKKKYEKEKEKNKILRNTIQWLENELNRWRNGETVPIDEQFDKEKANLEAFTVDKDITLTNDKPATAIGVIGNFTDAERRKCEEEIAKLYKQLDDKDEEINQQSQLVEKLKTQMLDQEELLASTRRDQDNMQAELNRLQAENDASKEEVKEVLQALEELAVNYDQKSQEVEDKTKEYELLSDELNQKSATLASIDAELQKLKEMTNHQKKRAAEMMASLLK

Assays:
Experiment in all cases: pull-down; streptavidin Dynabeads pull-down from HEK293T lysates coexpressing BirA, Bio-mCherry-tagged bait and GFP-tagged KIF5B prey; 20 mM Tris pH 7.5, 150 mM NaCl, 1 mM MgCl2, 1% Triton X-100 lysis; washes with 150 mM NaCl, 0.1% Triton X-100; 4°C; Western blotting
[1] = molecular target: Bio-mCherry-MAP7D2 (UniProt Q96T17)
[2] = molecular target: Bio-mCherry-MAP7D1 (UniProt Q3KQU3)
[3] = molecular target: T1, Bio-mCherry-MAP7D3 (UniProt Q8IWC1)
T1 sequence (chain, biotin on the BirA substrate tag (coexpressed biotin ligase BirA)): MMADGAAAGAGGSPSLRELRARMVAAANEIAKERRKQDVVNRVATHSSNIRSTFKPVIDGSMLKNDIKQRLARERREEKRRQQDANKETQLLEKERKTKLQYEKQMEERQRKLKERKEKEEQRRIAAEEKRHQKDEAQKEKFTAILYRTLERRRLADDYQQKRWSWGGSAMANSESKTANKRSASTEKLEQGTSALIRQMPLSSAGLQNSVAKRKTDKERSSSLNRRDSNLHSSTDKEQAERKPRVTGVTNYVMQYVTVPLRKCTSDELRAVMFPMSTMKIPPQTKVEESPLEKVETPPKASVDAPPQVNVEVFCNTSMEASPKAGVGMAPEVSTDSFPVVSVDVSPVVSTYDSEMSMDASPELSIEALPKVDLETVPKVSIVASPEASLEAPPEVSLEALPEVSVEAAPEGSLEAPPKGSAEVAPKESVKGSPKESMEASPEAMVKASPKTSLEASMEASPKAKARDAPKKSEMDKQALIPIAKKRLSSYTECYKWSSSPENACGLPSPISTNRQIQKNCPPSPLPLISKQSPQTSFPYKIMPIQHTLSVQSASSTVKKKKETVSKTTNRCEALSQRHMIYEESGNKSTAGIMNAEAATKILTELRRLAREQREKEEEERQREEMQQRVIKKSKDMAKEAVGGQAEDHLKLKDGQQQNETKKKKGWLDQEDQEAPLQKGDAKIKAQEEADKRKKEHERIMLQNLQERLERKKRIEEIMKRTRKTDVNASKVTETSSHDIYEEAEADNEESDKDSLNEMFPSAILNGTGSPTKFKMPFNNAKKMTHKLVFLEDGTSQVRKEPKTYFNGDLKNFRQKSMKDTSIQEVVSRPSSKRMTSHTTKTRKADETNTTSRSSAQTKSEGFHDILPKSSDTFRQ

[4] = molecular target: Bio-mCherry-MAP7 (UniProt Q14244)

Measured: binding

K560-GFP (kinesin-1 KIF5B fragment 1–560), expressed in HEK293T cells for pull-down (from UniProt P33176 1-560) (domain or fragment)
binds: all assays above
